# Source: PubChem BioAssay AID493014 (National Center for Advancing Translational Sciences (NCATS), 2011)
# Some of the results follow. Further columns of the screen follow, without active or inactive calls. The list favours compounds with an active or inconclusive main result. Words in brackets tell the shape of the fitted curve; partial curves, single points and poor fits give uncertain potencies.
# Assay: qHTS Assay to Find Inhibitors of Chronic Active B-Cell Receptor Signaling
# Settings: ABC-DLBCL IkBa-CBG/CBR reporter, luminescence ratio (green luciferase fused to IkBa over red control in TMD8 lymphoma cells), 4 h
# In short: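 TMD8 human ABC-DLBCL cells with doxycycline-inducible IκBα–green luciferase fusion and unfused red luciferase, in 0.5% FBS medium; compounds up to 46 uM, 4 h at 37C. Green/red luminescence ratio, filter-overlap corrected, fitted to concentration-response curves.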
# [1] = measured here: CBR red luminescence, cell number
# [2] = measured here: IkBa-CBG green luminescence
structure (smiles),measurement,setting,value
Fc1ccc(/C=N/NC(=S)Nc2cccnc2)cc1F,AC50,[1],"5.01 µM [rising, single point]"
same,AC50,[2],"5.62 µM [falling, single point]"
COc1ccc(CCC(C)NCCc2ccc(Cl)cc2Cl)cc1 (configuration not stated),AC50,[1],"20 µM [falling, single point]"
Cc1cc(C)n2nc(SCc3nc4ccccc4[nH]3)nc2n1,AC50,[1],"14.6 µM [falling, partial curve, poor fit]"
Brc1ccc(Cn2c(-c3ccc(Br)o3)nc3ccccc32)o1,AC50,[1],"16.4 µM [falling, single point]"
CCNC(=S)Nc1ccc(Cl)cc1,AC50,[1],"13 µM [rising, partial curve, poor fit]"
O=C(CNC(=O)c1n[nH]c2ccccc12)Nc1cc(Cl)ccc1Cl,AC50,[1],"5.8 µM [falling, single point]"
O=C(COc1ccc(Cl)cc1Cl)N/N=C/C1CC=CCC1 (configuration not stated),AC50,[1],"1.26 µM [rising, full curve, poor fit]"
CCc1cc(=O)oc2c(C)c(OCC(=O)N3CCC(C(=O)O)CC3)ccc12,AC50,[1],"22.4 µM [falling, single point]"
Cc1ccc(/C=C2\SC(=S)N(CCC(=O)NNC(=O)c3cccnc3)C2=O)cc1,AC50,[1],"7.31 µM [falling, partial curve]"
CCCn1c(N)c(N(CCOC)C(=O)CSCC(=O)Nc2ccc(C)cc2)c(=O)[nH]c1=O,AC50,[1],"1.16 µM [rising, full curve, poor fit]"
CCOC(=O)[C@H]1[C@H]2COc3ccccc3[C@@H]2N2C(=O)c3ccc(C)cc3NC(=O)[C@@]12C,AC50,[1],"20.6 µM [falling, single point]"
COc1ccc(NC(=S)N(Cc2cccnc2)Cc2cc3cc(OC)c(OC)cc3[nH]c2=O)cc1,AC50,[1],"25.1 µM [rising, single point]"
CN(C(=O)c1cccnc1)c1nnc(-c2ccccn2)s1,AC50,[1],"0.146 µM [falling, full curve, poor fit]"
CCNCC(=O)N1c2ccccc2CCc2ccc(NC(=O)OCC)cc21,AC50,[1],"3.16 µM [rising, single point]"
COc1ccc2c(c1)CC/C(=C\c1ccc(C)o1)C2=O,AC50,[1],"6.31 µM [rising, partial curve, poor fit]"
O=C(NCc1nc2ccccc2[nH]1)C1=C[C@@H](c2ccc(Br)cc2)C[C@@H](OCc2ccc(CO)cc2)O1,AC50,[1],"0.112 µM [falling, full curve, poor fit]"
O=C(NCc1ccco1)c1ccccc1Nc1ccc(F)cc1,AC50,[1],"3.66 µM [rising, single point]"
O=C(NC1CCCCCC1)c1cc2ccccc2oc1=O,AC50,[1],"0.794 µM [falling, full curve, poor fit]"
Nc1ccccc1-c1nc2ccccc2s1,AC50,[1],"17.8 µM [rising, partial curve, poor fit]"
CCOCCn1c(SCc2cccc(C)c2)nc2c1c(=O)[nH]c(=O)n2C,AC50,[1],"20.6 µM [falling, single point]"
C=CC[C@@H](CC(=O)N[C@@H](CO)Cc1ccccc1)C(=O)NC[C@@H](OC(=O)[C@@H](CC=C)CC(=O)OC(C)(C)C)c1ccccc1,AC50,[1],"14.6 µM [rising, partial curve, poor fit]"
COc1cccc(Nc2nnc(SCN3C(=O)c4ccccc4C3=O)s2)c1,AC50,[1],"2.59 µM [rising, full curve]"
Cc1cc(C)c2c(c1)c1nnc(SCCN3CCCCC3)nc1n2C,AC50,[2],"17.8 µM [rising, partial curve, poor fit]"
O=c1c2ccccc2nc(-c2ccc(Cl)cc2Cl)n1CCCn1ccnc1,AC50,[1],"6.31 µM [rising, single point]"
CCCCc1ccc(NC(=S)NCc2ccc(OC)cc2)cc1,AC50,[1],"35.5 µM [falling, single point]"
COc1ccc(CNC(=O)CCCOc2cc(=O)n(C)c3ccccc23)cc1,AC50,[1],"23.1 µM [rising, single point]"
same,AC50,[2],"23.1 µM [falling, single point]"
COc1ccc(C(=O)Nc2nnc(Cc3ccccc3)s2)c(OC)c1,AC50,[1],"11.2 µM [rising, partial curve]"
CCOC(=O)C1(CC2CC2)CCN(Cc2cn(C)c3ccccc23)CC1,AC50,[1],"11.2 µM [falling, partial curve]"
O=C(Nc1cccc(-c2nc3ccccc3s2)c1)c1cc(-n2cnnc2)ccc1Cl,AC50,[1],"3.55 µM [falling, partial curve, poor fit]"
CCNC(=S)Nc1ccc(OC(F)(F)F)cc1,AC50,[1],"2.82 µM [rising, partial curve, poor fit]"
COc1cc(C(=O)Nc2cccc(-c3nnc(-c4ccco4)o3)c2)ccc1OC(C)=O,AC50,[1],"10 µM [falling, partial curve, poor fit]"
O=C(NNC(=O)c1c(O)c2ccccc2[nH]c1=O)c1ccccc1Br,AC50,[1],"1.78 µM [falling, full curve]"
CCN(C(=O)COC(=O)/C(C#N)=C/c1ccc(N(C)C)cc1)C1CCS(=O)(=O)C1 (configuration not stated),AC50,[1],"29.1 µM [rising, single point]"
CCOC(=O)c1c(-c2ccccc2)oc2ccc(O)c(CN3CCN(C)CC3)c12,AC50,[1],"14.6 µM [falling, partial curve, poor fit]"
CC(NC(=O)COc1ccc(Br)cc1)C1CCCO1 (configuration not stated),AC50,[1],"5.01 µM [rising, full curve, poor fit]"
COC(=O)c1ccc2nc(-c3cccc(N)c3)cn2c1,AC50,[1],"25.1 µM [falling, single point]"
CN(C(=O)c1cccc(NC(=O)C2CCCN(C(=O)OC(C)(C)C)C2)c1)C1CCCC1 (configuration not stated),AC50,[1],"32.6 µM [falling, single point]"
Clc1cnc(N/N=C/c2cccs2)c(Cl)c1,AC50,[1],"10 µM [falling, partial curve]"
O=c1[nH]c(=O)n(Cc2ccco2)c2c1C(C(F)(F)F)(C(F)(F)F)N=C(c1ccco1)N2,AC50,[1],"17.8 µM [rising, partial curve, poor fit]"
COc1ccccc1Nc1nc(NCCO)nc(N)c1[N+](=O)[O-],AC50,[1],"1.26 µM [rising, full curve]"

# An excerpt of these results, with bars between the fields:
structure (smiles) | measurement | setting | value
CCNC(=S)Nc1ccc(Cl)cc1 | AC50 | [1] | 13 µM [rising, partial curve, poor fit]
O=C(CNC(=O)c1n[nH]c2ccccc12)Nc1cc(Cl)ccc1Cl | AC50 | [1] | 5.8 µM [falling, single point]
O=C(COc1ccc(Cl)cc1Cl)N/N=C/C1CC=CCC1 (configuration not stated) | AC50 | [1] | 1.26 µM [rising, full curve, poor fit]
CCc1cc(=O)oc2c(C)c(OCC(=O)N3CCC(C(=O)O)CC3)ccc12 | AC50 | [1] | 22.4 µM [falling, single point]
Cc1ccc(/C=C2\SC(=S)N(CCC(=O)NNC(=O)c3cccnc3)C2=O)cc1 | AC50 | [1] | 7.31 µM [falling, partial curve]
CCCn1c(N)c(N(CCOC)C(=O)CSCC(=O)Nc2ccc(C)cc2)c(=O)[nH]c1=O | AC50 | [1] | 1.16 µM [rising, full curve, poor fit]
CCOC(=O)[C@H]1[C@H]2COc3ccccc3[C@@H]2N2C(=O)c3ccc(C)cc3NC(=O)[C@@]12C | AC50 | [1] | 20.6 µM [falling, single point]
COc1ccc(NC(=S)N(Cc2cccnc2)Cc2cc3cc(OC)c(OC)cc3[nH]c2=O)cc1 | AC50 | [1] | 25.1 µM [rising, single point]
